These results are taken from publication PMC12069319, “Transcriptional co-regulator OCA-B/Pou2af1 restricts Th2 differentiation”.

The data set has as its system GATA3. In words: EMSA. The following applies: EMSA: 0.6X buffer D (1X: 20 mM HEPES, 100 mM KCl, 1 mM DTT), 50 ng/ul poly-dI/dC, 1 ug/ul BSA, on ice 15 min, 6% native PAGE in 0.5X TBE; recombinant protein; protein details: FLAG (anti-FLAG purified). (In general: Mobility shift assays separate free from complexed probe on a gel.)

For at least one entry, the source does not settle the construct or the ends of the probe.

With “TCGAGAAGCGCTGATTAGCATCTGTCATTA (double strand) [RHS5_12-Cy5]”, the binding result was “binds”.
